Laboratory results taken from the supplement of paper PMC12823440, “Inhibitors supercharge kinase turnover through native proteolytic circuits” (Nature, 2025).
Structures can show the parent of a compound that is named as a salt. Some of the results follow. Hit calls seldom repeat between salt and free forms of one compound.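 In K562 cells expressing nanoluciferase-fused kinases, luminescence was recorded at 4 h intervals between 2 and 18 h, normalized as percent of control with DMSO at 100% and a positive control at 0%. A significant (2 sigma) signal drop marks a time point as decreased. The authors' rule for a hit is not shown and takes in more than the number of time points.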

By UniProt entry, the sequences of proteins in these tests, tags left out. Where a name states a change or a piece, a line headed by the entry shows the natural chain unless it says otherwise.
UniProt P29317, whole entry: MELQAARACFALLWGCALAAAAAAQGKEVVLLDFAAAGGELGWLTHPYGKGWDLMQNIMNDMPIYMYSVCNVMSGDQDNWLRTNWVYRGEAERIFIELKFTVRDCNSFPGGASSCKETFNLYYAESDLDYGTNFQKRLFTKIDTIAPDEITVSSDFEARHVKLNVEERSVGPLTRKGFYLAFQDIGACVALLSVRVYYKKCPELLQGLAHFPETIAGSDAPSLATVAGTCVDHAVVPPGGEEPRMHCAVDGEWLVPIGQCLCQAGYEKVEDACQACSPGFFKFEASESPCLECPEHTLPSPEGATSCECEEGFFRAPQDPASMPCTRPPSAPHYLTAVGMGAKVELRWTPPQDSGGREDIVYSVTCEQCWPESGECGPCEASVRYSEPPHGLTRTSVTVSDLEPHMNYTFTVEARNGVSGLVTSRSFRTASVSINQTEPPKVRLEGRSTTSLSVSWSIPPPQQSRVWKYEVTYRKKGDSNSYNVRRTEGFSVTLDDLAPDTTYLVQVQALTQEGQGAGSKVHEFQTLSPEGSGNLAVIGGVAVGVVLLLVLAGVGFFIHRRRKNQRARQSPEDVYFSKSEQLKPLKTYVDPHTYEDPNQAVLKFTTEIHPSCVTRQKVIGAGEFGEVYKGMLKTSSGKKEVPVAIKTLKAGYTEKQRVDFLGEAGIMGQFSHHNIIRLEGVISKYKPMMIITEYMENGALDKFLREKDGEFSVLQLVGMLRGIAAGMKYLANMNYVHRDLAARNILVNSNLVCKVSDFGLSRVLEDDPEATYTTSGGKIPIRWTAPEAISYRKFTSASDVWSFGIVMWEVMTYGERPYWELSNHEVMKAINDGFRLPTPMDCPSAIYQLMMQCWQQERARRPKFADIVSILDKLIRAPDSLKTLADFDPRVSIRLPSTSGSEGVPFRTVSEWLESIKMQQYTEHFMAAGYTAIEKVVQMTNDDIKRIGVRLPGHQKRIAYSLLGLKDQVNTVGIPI
UniProt Q15303, whole entry R711C: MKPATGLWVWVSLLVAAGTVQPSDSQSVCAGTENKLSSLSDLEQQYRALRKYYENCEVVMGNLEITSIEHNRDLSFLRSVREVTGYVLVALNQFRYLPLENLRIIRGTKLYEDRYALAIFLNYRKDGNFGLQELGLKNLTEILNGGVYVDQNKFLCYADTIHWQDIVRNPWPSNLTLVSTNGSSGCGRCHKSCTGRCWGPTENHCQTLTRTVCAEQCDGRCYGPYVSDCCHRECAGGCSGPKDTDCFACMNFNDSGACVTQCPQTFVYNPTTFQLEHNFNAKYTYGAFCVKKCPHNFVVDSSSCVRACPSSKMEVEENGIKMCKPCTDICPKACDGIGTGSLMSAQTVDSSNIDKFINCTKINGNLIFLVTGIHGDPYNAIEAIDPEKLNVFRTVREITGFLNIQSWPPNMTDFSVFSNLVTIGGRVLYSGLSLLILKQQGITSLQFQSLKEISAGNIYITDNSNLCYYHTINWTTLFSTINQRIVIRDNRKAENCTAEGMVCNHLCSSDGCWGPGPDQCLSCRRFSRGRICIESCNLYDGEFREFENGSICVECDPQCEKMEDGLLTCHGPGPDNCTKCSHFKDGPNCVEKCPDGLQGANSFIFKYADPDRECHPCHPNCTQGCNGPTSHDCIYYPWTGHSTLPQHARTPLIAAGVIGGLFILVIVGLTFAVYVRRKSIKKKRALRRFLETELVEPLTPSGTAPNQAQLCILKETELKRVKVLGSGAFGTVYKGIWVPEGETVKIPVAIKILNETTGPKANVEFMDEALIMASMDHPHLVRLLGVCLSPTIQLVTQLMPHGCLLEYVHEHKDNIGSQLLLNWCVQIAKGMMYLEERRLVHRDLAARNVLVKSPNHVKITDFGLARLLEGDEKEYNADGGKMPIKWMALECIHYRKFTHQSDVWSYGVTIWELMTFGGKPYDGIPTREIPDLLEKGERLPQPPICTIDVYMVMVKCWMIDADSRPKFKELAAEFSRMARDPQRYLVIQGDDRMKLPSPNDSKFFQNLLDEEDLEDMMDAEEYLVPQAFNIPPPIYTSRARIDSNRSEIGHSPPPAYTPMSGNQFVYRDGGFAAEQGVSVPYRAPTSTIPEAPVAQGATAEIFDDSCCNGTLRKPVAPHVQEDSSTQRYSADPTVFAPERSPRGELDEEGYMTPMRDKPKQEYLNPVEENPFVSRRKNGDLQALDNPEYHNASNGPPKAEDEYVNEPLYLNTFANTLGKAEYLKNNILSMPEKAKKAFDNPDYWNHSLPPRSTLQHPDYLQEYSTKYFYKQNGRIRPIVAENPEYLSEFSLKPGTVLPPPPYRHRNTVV
UniProt P11362, whole entry, looked up: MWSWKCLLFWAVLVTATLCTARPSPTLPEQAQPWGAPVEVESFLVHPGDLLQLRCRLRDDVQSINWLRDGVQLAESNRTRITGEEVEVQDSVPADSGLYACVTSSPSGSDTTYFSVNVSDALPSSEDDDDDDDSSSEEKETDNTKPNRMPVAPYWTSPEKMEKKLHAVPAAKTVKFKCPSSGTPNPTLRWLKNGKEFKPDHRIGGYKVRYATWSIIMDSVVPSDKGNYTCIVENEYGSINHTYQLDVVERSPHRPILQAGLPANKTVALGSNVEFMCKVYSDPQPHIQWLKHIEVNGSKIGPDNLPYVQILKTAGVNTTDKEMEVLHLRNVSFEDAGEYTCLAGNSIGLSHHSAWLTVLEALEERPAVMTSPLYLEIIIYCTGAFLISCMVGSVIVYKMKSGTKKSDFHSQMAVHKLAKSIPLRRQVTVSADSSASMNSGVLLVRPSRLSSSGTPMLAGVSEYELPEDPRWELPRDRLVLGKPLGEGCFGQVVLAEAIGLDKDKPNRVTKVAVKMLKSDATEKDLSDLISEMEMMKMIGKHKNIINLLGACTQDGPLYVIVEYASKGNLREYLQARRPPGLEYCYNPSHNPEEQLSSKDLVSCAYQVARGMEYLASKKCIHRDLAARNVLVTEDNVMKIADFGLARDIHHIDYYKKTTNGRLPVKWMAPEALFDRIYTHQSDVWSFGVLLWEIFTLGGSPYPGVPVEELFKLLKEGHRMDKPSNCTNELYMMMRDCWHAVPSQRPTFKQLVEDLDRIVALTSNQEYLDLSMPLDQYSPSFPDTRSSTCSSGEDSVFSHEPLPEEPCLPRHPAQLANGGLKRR
UniProt P36888, whole entry: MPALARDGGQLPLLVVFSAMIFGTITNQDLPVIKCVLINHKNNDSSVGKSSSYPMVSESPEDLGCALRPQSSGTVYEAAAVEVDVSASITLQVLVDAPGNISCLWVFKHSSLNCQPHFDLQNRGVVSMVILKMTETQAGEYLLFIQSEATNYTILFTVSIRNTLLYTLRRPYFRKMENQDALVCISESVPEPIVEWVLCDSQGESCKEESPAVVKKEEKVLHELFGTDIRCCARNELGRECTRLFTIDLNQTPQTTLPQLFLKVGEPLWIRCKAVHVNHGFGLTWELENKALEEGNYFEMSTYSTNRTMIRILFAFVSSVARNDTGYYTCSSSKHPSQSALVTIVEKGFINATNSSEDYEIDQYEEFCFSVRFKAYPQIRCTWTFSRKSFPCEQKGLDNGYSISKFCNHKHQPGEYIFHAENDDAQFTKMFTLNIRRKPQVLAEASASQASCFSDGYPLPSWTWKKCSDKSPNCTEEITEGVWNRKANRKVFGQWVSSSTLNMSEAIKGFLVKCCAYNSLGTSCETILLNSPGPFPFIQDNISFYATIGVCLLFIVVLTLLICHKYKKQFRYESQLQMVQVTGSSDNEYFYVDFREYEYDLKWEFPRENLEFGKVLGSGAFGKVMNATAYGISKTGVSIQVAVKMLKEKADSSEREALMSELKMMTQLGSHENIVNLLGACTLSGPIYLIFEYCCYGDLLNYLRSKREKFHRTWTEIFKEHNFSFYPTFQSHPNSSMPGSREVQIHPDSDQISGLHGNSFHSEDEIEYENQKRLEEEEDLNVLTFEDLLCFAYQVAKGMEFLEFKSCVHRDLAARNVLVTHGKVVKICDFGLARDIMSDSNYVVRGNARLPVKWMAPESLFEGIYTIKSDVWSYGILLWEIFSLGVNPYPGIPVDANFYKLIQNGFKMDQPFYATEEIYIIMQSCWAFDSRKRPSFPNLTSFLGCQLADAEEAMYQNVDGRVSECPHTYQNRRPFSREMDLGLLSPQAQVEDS
UniProt P14616: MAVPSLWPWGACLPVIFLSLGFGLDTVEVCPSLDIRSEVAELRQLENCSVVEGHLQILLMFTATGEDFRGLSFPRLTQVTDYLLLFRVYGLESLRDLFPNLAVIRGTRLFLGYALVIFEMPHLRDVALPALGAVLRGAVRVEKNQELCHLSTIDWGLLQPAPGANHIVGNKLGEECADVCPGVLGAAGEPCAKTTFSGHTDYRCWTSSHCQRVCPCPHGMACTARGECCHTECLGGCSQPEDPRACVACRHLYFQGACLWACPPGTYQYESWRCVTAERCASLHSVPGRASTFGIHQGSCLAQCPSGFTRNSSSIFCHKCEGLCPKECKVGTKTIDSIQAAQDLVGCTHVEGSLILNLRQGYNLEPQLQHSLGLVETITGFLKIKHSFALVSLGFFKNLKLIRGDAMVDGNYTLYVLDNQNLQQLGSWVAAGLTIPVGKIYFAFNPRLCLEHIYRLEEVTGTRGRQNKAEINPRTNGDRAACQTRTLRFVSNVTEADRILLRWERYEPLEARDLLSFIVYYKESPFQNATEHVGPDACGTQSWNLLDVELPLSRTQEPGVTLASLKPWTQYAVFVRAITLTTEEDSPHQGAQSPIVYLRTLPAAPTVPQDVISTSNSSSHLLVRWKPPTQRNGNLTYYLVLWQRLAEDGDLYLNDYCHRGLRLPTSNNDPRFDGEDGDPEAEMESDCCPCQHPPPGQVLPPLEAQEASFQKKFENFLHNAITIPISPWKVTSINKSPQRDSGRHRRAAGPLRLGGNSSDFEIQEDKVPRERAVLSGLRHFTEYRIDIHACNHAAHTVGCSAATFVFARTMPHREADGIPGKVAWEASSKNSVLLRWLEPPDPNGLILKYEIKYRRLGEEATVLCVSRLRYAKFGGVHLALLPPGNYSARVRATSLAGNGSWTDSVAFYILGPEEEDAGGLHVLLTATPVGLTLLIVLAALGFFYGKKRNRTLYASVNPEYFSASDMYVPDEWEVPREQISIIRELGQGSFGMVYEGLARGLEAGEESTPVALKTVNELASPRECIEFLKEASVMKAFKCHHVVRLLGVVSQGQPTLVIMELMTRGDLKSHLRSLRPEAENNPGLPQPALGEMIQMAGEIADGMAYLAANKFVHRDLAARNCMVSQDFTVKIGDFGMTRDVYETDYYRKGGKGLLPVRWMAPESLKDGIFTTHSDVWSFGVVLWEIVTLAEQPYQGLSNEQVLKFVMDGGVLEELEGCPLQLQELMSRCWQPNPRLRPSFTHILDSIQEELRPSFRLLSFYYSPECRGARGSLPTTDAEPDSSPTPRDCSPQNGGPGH
UniProt P23458: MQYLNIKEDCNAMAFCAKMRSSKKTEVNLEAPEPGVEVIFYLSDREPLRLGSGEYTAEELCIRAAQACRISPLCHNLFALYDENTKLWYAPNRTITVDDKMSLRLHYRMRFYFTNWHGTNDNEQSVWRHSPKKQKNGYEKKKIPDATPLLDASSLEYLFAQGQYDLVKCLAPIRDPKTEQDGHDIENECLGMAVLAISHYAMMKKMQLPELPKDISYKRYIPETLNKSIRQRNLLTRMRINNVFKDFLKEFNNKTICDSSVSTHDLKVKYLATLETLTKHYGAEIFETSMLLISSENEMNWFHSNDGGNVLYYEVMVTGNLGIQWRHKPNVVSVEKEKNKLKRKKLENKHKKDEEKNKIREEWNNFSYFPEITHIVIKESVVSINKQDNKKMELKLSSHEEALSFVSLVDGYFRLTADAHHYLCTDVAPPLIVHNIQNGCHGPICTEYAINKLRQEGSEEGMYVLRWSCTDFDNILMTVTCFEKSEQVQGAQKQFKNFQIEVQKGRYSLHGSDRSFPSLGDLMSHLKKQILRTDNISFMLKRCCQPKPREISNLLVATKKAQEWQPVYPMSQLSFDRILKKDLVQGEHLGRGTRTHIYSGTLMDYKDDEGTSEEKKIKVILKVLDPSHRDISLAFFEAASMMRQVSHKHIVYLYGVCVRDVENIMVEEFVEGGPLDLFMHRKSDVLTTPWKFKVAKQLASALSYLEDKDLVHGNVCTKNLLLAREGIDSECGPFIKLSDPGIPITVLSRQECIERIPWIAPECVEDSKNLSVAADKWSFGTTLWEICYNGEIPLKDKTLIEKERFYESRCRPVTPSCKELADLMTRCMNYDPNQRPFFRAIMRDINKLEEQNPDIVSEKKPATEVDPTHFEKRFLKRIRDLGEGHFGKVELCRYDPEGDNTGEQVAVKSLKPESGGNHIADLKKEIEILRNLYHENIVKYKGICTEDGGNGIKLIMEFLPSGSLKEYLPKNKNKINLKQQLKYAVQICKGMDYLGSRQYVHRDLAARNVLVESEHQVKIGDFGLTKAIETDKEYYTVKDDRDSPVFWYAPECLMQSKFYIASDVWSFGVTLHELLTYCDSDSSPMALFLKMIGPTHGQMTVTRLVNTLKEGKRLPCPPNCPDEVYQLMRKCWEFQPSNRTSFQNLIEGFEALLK

Experiments:
Experiment in all cases: number of time points (of 5) at which kinase-Nluc abundance scored as decreased, DMSO-normalised (count); higher = more persistent destabilization
Conditions in all cases: K562; 2-18 h
EGFR_L861Q = EGFR_L861Q (UniProt P00533)
EGFR_T790M = EGFR_T790M (UniProt P00533)
EPHA2 = EPHA2 (UniProt P29317)
ERBB3 = ERBB3 (UniProt P21860)
[1] = target: ERBB4_R711C (clone: ERBB4_mut) (UniProt Q15303)
ERN1 = ERN1 (UniProt O75460)
FGFR1 = FGFR1 (UniProt P11362)
FGFR2 = FGFR2 (UniProt P21802)
FGFR3 = FGFR3 (UniProt P22607)
FGR = FGR (UniProt P09769)
FLT3 = FLT3 (UniProt P36888)
FYN = FYN (UniProt P06241)
GSK3A = GSK3A (UniProt P49840)
HER2 = HER2 (UniProt P04626)
INSRR = INSRR (UniProt P14616)
IRAK3 = IRAK3 (UniProt Q9Y616)
JAK1 = JAK1 (UniProt P23458)
LCK = LCK (UniProt P06239)
LIMK1 = LIMK1 (UniProt P53667)
LIMK2 = LIMK2 (UniProt P53671)

Measured: number of time points

NCCOc1ccc(Cl)cc1C(=O)Nc1ccc([N+](=O)[O-])cc1Cl [HJC0152 hydrochloride] (2 µM)
0: all assays above

CO[C@H]1C[C@@H]2CC[C@@H](C)[C@@](O)(O2)C(=O)C(=O)N2CCCC[C@H]2C(=O)O[C@H]([C@H](C)C[C@@H]2CC[C@@H](OCCO)[C@H](OC)C2)CC(=O)[C@H](C)/C=C(\C)[C@@H](O)[C@@H](OC)C(=O)[C@H](C)C[C@H](C)/C=C/C=C/C=C/1C [Everolimus] (10 µM)
0: all assays above

COC(=O)/C=C/c1ccccc1 [Methyl cinnamate] (10 µM)
0: all assays above

COc1cc(N2CCOCC2)ccc1Nc1ncc(F)c(Nc2ccccc2NS(C)(=O)=O)n1 (10 µM)
0: all assays above

CCN(CC)CCOc1ccc(Nc2nc(-c3ccccc3NC(=O)CCN3CCN(C)CC3)nc3ccccc23)cc1 (2.5 µM)
0: all assays above

CC1(N)CCN(c2cccnc2NC(=O)c2nc(-c3ncccc3C(F)(F)F)cnc2N)CC1 [Darovasertib] (10 µM)
0: all assays above

CCc1c[nH]c2ncnc(N3CC[C@](N)(CNC(=O)c4ccc(F)cc4F)C3)c12 (10 µM)
0: all assays above

CC1=C(C(=O)Nc2cc3cn[nH]c3cc2F)C(c2ccc(C(F)(F)F)cc2)CC(=O)N1 (stereo not given) (10 µM)
0: all assays above

Cc1ccc(C(=O)NC2CC2)cc1-n1ncc(C(=O)c2cccc(C#N)c2)c1N [Acumapimod] (10 µM)
3: [1]
2: EGFR_L861Q | ERBB3 | FGFR2 | INSRR
0: all other assays above

O=C1NC(=O)/C(=C\c2c[nH]c(=O)c(-c3ccc(N4CCNCC4)nc3)c2)S1 [Protein kinase inhibitors 1 hydrochloride] (10 µM)
0: all assays above

Retrieved one by one from the list above (2):
CO[C@H]1C[C@@H]2CC[C@@H](C)[C@@](O)(O2)C(=O)C(=O)N2CCCC[C@H]2C(=O)O[C@H]([C@H](C)C[C@@H]2CC[C@@H](OCCO)[C@H](OC)C2)CC(=O)[C@H](C)/C=C(\C)[C@@H](O)[C@@H](OC)C(=O)[C@H](C)C[C@H](C)/C=C/C=C/C=C/1C [Everolimus] (10 µM)
0: all assays above

CC1=C(C(=O)Nc2cc3cn[nH]c3cc2F)C(c2ccc(C(F)(F)F)cc2)CC(=O)N1 (stereo not given) (10 µM)
0: all assays above

Continuation.

Nc1nc2c(nc(Br)n2[C@@H]2O[C@@H]3COP(=O)(O)O[C@H]3[C@H]2O)c(=O)[nH]1 [8-Bromo-cGMP (sodium)] (10 µM)
0: all assays above

O=C(Nc1cccc(-c2nc(-c3ccc(NC(=O)c4cccnc4)cc3Cl)no2)c1)Nc1ccc(NC(=O)C2CC2)c(C(F)(F)F)c1 (2.5 µM)
0: all assays above

CN1CCN(c2cc(-c3ccncc3)c(-c3ccc4ccccc4c3)nn2)CC1 (10 µM)
0: all assays above

O=Nc1c(-c2c(O)[nH]c3cc(Br)ccc23)[nH]c2ccccc12 [GSK 3 Inhibitor IX] (2.5 µM)
4: FLT3
3: EGFR_L861Q | [1]
0: all other assays above

COc1c(O)cc2oc(-c3ccc(O)cc3)cc(=O)c2c1O [Hispidulin] (10 µM)
0: all assays above

Nc1nc(NCCNc2ncc(-n3ccnc3)c(-c3ccc(Cl)cc3Cl)n2)ccc1[N+](=O)[O-] (2.5 µM)
1: EPHA2 | ERBB3 | FGFR1 | HER2
0: all other assays above
